Data from article PMC12402098, “YTHDF3 recognizes DNA N6-methyladenine and recruits ALKBH1 for 6mA removal from genomic DNA” (The EMBO Journal, 2025).

By UniProt entry, the sequences of proteins in these tests, tags left out.
UniProt P11586: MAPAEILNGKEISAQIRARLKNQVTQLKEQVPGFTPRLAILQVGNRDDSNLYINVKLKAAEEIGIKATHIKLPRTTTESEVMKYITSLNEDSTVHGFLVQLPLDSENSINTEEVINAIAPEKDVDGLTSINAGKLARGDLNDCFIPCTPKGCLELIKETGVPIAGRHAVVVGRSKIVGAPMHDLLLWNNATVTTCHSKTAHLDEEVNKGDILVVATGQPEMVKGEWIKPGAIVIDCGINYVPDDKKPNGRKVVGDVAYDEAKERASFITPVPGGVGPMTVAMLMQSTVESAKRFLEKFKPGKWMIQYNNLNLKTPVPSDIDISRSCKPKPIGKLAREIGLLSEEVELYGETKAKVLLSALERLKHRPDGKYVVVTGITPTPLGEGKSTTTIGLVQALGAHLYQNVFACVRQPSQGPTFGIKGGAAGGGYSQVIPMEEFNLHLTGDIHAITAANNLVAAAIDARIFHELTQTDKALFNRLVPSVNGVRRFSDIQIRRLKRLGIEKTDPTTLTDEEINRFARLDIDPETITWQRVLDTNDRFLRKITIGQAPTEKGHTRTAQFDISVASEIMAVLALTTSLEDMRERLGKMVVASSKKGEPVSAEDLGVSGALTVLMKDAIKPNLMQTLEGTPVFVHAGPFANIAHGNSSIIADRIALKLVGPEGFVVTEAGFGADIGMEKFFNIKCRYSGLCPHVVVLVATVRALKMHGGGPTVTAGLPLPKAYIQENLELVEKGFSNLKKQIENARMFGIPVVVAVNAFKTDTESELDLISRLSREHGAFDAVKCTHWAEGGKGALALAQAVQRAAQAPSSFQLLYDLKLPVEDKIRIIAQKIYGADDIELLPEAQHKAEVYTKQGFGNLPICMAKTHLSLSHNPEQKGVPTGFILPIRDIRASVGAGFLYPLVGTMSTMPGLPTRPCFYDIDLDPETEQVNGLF
UniProt Q9BYJ9: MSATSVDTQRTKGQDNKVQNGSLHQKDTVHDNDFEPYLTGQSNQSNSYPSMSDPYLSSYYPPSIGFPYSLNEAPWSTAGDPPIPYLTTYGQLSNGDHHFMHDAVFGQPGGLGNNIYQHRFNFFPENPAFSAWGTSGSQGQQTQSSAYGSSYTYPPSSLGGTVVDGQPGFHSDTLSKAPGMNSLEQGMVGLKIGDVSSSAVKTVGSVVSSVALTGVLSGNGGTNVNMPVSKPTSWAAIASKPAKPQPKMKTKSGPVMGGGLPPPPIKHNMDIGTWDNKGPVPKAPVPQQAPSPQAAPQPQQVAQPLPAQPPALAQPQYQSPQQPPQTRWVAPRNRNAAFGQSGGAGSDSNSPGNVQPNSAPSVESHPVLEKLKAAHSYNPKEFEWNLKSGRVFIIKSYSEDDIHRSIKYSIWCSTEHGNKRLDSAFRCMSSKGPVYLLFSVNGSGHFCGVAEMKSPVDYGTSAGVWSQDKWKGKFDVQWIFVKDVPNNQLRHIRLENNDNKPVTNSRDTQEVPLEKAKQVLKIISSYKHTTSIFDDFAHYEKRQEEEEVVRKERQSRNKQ
UniProt Q7Z739: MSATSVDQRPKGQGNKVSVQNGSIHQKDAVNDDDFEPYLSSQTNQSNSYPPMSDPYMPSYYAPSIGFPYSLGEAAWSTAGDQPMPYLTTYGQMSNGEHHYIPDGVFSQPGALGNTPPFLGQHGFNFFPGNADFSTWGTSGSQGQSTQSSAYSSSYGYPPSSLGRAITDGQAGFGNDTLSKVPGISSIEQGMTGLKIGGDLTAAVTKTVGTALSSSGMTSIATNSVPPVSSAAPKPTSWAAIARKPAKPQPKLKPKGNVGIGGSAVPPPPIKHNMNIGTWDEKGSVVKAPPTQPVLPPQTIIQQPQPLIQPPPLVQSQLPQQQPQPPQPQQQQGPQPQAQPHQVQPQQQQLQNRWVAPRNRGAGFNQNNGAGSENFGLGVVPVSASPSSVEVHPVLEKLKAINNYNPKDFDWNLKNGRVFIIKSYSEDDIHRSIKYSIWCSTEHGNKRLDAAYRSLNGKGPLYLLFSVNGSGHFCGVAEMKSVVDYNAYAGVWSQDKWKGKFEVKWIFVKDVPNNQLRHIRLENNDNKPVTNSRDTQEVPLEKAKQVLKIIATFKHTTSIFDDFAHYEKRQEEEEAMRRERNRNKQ

T1: ALKBH1-Flag (UniProt Q13686)
T1 sequence: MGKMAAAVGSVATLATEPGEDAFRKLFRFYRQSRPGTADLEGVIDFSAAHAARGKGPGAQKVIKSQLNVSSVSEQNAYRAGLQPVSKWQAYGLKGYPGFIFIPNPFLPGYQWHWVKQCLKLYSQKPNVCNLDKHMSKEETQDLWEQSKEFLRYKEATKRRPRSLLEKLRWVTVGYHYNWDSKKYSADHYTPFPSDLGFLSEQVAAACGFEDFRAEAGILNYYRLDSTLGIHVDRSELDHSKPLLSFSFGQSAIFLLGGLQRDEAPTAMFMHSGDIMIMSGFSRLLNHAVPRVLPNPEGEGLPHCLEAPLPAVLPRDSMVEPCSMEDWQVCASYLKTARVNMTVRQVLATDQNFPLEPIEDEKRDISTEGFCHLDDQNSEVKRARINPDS


How the values were obtained:
ALKBH1-Flag [1] = biological target: T1, ALKBH1-Flag; experiment: affinity purification with mass spectrometry; ALKBH1-FLAG complexes coimmunoprecipitated with an anti-FLAG antibody from human cells, SDS-PAGE, silver stain, differential gel bands identified by mass spectrometry
ALKBH1-Flag [2] = biological target: T1, ALKBH1-Flag; experiment: as above; remark: listed apart in the source

Row | binding (ALKBH1-Flag [1]) | binding (ALKBH1-Flag [2]) | Molecule
1 | binds |  | MTHFD1 (from UniProt P11586 1-935)
2 | no binding |  | YTHDF1 (from UniProt Q9BYJ9 1-559)
3 | binds |  | YTHDF3 (endogenous) (from UniProt Q7Z739 1-585)
4 |  | no binding | YTHDC2 (protein, UniProt Q9H6S0 1-1430) MSRPSSVSPRQPAPGGGGGGGPSPCGPGGGGRAKGLKDIRIDEEVKIAVNIALERFRYGDQREMEFPSSLTSTERAFIHRLSQSLGLVSKSKGKGANRYLTVKKKDGSETAHAMMTCNLTHNTKHAVRSLIQRFPVTNKERTELLPKTERGNVFAVEAENREMSKTSGRLNNGIPQIPVKRGESEFDSFRQSLPVFEKQEEIVKIIKENKVVLIVGETGSGKTTQIPQFLLDDCFKNGIPCRIFCTQPRRLAAIAVAERVAAERRERIGQTIGYQIRLESRVSPKTLLTFCTNGVLLRTLMAGDSTLSTVTHVIVDEVHERDRFSDFLLTKLRDLLQKHPTLKLILSSAALDVNLFIRYFGSCPVIYIQGRPFEVKEMFLEDILRTTGYTNKEMLKYKKEKQQEEKQQTTLTEWYSAQENSFKPESQRQRTVLNVTDEYDLLDDGGDAVFSQLTEKDVNCLEPWLIKEMDACLSDIWLHKDIDAFAQVFHLILTENVSVDYRHSETSATALMVAAGRGFASQVEQLISMGANVHSKASNGWMALDWAKHFGQTEIVDLLESYSATLEFGNLDESSLVQTNGSDLSAEDRELLKAYHHSFDDEKVDLDLIMHLLYNICHSCDAGAVLIFLPGYDEIVGLRDRILFDDKRFADSTHRYQVFMLHSNMQTSDQKKVLKNPPAGVRKIILSTNIAETSITVNDVVFVIDSGKVKEKSFDALNFVTMLKMVWISKASAIQRKGRAGRCRPGICFRLFSRLRFQNMLEFQTPELLRMPLQELCLHTKLLAPVNCPIADFLMKAPEPPPALIVRNAVQMLKTIDAMDTWEDLTELGYHLADLPVEPHLGKMVLCAVVLKCLDPILTIACTLAYRDPFVLPTQASQKRAAMLCRKRFTAGAFSDHMALLRAFQAWQKARSDGWERAFCEKNFLSQATMEIIIGMRTQLLGQLRASGFVRARGGGDIRDVNTNSENWAVVKAALVAGMYPNLVHVDRENLVLTGPKEKKVRFHPASVLSQPQYKKIPPANGQAAAIKALPTDWLIYDEMTRAHRIANIRCCSAVTPVTILVFCGPARLASNALQEPSSFRVDGIPNDSSDSEMEDKTTANLAALKLDEWLHFTLEPEAASLLLQLRQKWHSLFLRRMRAPSKPWSQVDEATIRAIIAVLSTEEQSAGLQQPSGIGQRPRPMSSEELPLASSWRSNNSRKSSADTEFSDECTTAERVLMKSPSPALHPPQKYKDRGILHPKRGTEDRSDQSSLKSTDSSSYPSPCASPSPPSSGKGSKSPSPRPNMPVRYFIMKSSNLRNLEISQQKGIWSTTPSNERKLNRAFWESSIVYLVFSVQGSGHFQGFSRMSSEIGREKSQDWGSAGLGGVFKVEWIRKESLPFQFAHHLLNPWNDNKKVQISRDGQELEPLVGEQLLQLWERLPLGEKNTTD

Like-named read-outs stand apart in the source and are kept apart here. These are yes or no findings as the source states them, for the method shown. In cells and extracts the contact can be indirect. Here binding means that the protein was enriched with, or labelled near, the bait; the list need not be complete. No binding means not detected with the bait. Where a sequence is shown, tags or fusion partners need not be part of it.
